Measured values as given in article PMC12853606.
Results are given in words; binding and its absence hold for the method and conditions named. In cells and extracts the contact can be indirect. Some results given as binding are weak or reduced against the parent protein; the word gives no strength.

Amino acid sequences for entries named in this document (tags omitted).
UniProt P25786: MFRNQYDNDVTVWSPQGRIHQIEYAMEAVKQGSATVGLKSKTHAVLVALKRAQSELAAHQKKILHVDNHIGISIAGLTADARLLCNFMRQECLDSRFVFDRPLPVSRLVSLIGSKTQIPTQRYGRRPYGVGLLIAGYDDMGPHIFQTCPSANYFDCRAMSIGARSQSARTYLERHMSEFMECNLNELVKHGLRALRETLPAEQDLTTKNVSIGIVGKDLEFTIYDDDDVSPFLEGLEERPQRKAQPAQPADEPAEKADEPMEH
UniProt O95751: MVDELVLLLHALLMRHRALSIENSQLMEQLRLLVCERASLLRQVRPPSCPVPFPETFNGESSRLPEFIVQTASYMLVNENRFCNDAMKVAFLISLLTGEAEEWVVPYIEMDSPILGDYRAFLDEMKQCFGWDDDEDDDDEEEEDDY

Tests used:
[1] = biological target: T1, THAP Domain Containing 12 (THAP12) (human (endogenous in A549)) (UniProt O43422); test: proximity ligation; Duolink in situ PLA on fixed (4% paraformaldehyde), permeabilised A549 cells; primary antibodies against LDOC1 and its partner overnight at 4 °C; confocal imaging; for THAP12 also A549-shCtrl-1 and A549-shLDOC1-1 cells
T1 sequence: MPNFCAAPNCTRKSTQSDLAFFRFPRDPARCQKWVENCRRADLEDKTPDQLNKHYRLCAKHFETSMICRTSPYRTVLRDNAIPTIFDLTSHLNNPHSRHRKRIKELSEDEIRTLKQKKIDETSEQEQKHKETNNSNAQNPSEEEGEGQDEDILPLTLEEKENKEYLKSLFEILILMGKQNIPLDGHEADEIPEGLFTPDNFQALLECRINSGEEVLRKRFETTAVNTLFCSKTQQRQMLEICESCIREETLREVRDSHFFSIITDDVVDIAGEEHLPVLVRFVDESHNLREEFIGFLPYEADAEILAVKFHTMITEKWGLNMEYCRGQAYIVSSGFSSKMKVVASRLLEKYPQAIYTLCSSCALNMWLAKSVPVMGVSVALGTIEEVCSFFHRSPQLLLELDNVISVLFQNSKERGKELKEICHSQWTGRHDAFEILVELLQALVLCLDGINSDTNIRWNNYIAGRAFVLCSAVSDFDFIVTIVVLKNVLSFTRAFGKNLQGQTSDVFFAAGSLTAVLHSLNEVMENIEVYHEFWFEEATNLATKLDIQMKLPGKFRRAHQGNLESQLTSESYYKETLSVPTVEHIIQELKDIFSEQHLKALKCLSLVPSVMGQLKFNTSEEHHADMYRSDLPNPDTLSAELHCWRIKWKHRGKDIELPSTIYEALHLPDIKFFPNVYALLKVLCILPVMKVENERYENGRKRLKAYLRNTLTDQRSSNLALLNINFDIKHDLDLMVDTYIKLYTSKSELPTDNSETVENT

[2] = biological target: proteasome subunit alpha type 1 (PSMA1) (human (endogenous in A549)) (UniProt P25786); test: as above
[3] = biological target: T1, THAP Domain Containing 12 (THAP12) (human (endogenous in A549)); test: co-IP; A549 cell lysate (Pierce IP lysis buffer), pre-cleared with control IgG and protein A/G magnetic beads; primary antibody or control IgG 2 h at 4 °C, beads overnight at 4 °C; immunoblotting; endogenous proteins
[4] = biological target: proteasome subunit alpha type 1 (PSMA1) (human (endogenous in A549)) (UniProt P25786); test: as above

Measured: binding

Leucine zipper downregulated in cancer 1 (LDOC1) (from UniProt O95751 1-146)
binds: [1] | [2] | [3] | [4]
